Measurements taken from publication PMC4339810.
The exact form of at least one protein or probe is not confirmed. For some assays here: No signal at the amounts used counts as a negative. For some assays here: A weaker result is weaker than the reference pair of the same experiment. For some assays here: Protein sequences can lack the tags named with them.

Sequences of proteins named here, by UniProt entry; tags and fusion partners are left off. A change or cut given only in a name is not applied to a line headed by its entry.
UniProt P08515, whole entry: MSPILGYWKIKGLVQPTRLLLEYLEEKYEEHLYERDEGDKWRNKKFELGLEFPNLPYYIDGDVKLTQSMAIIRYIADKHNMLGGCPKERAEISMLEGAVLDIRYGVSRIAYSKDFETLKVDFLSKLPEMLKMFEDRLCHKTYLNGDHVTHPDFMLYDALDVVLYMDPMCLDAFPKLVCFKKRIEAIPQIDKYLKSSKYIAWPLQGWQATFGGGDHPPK
UniProt P52926: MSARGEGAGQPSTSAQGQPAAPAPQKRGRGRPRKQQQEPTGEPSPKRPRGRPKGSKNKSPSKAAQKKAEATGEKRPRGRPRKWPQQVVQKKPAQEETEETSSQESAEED

Columns and labels:
Test in all cases: EMSA
GST = GST (UniProt P08515); details: 0.5 and 10 pmol, no HMGA; EMSA: 4 pmol HMGA preincubated 10 min at 4°C with GST-NPM1/GST in 25 mM Tris/HCl pH 8, 5 mM GSH (8 uL); then 0.1 pmol DNA for 10 min in 180 mM NaCl, 1 mM MgCl2; recombinant protein; label: 32P
HMGA1a = target: T1, HMGA1a (UniProt P17096); details: GST-NPM1 0.5-30 pmol, complex decreases, disappears at 30 pmol; EMSA: 4 pmol HMGA preincubated 10 min at 4°C with GST-NPM1/GST in 25 mM Tris/HCl pH 8, 5 mM GSH (8 uL); then 0.1 pmol DNA for 10 min in 180 mM NaCl, 1 mM MgCl2; recombinant protein; label: 32P
T1 sequence (looked up, limits assumed): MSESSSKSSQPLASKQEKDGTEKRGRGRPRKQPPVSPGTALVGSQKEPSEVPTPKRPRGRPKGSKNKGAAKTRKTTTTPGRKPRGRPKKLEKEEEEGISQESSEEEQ

GST-NPM1 1-295 = details: no HMGA, EMSA: 4 pmol HMGA preincubated 10 min at 4°C with GST-NPM1/GST in 25 mM Tris/HCl pH 8, 5 mM GSH (8 uL), then 0.1 pmol DNA for 10 min in 180 mM NaCl, 1 mM MgCl2, recombinant protein, protein details: N-terminal GST, label: 32P
HMGA2 = HMGA2 (UniProt P52926); details: GST-NPM1 0.5-10 pmol, complex decreases; EMSA: 4 pmol HMGA preincubated 10 min at 4°C with GST-NPM1/GST in 25 mM Tris/HCl pH 8, 5 mM GSH (8 uL); then 0.1 pmol DNA for 10 min in 180 mM NaCl, 1 mM MgCl2; recombinant protein; label: 32P

Sequence | binding result (GST) | binding result (HMGA1a) | binding result (GST-NPM1 1-295; 0.5-30 pmol) | binding result (HMGA2) | binding result (GST-NPM1 1-295; 6 and 30 pmol)
GACACATTAATCTATAATCAAATA (double strand) [HCRII] | no binding | binds more weakly | no binding | binds more weakly | –
AGAAAAACTCCATCTAAAAAAAAAAAAAAAAAAAAAAAAAAACA (double strand) [E3] | – | – | – | – | no binding
